Measured data: PubChem BioAssay AID1159579 (Peter MacCallum Cancer Centre, 2015)
The whole screen tested about 2,000 reagents; this is an unselected part. Of all reagents, 549 (27%) were called active. 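Some migration ratios are negative; siRNAs with too few cells are inactive whatever their migration ratio.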 The numbers tell different reagents against one gene apart. Further read-outs or replicates are left out here. Not given: the time to read-out.

- Assay: 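Find genes whose silencing alters migration of lymphatic endothelial cells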 (follow-up of hits)
- System: human dermal lymphatic endothelial cells
- Reagents: single siRNA against human genes, 25 nM
- Measured: 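Scratch wound imaging measuring area filled by moving cells plus nuclei number, averaged over two wells and scaled to mock-transfected controls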
- Reading the numbers: migration relative to mock: higher = more migration into the scratch; mean nuclei count: higher = more cells remaining
- Active means: 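a ratio of at most 0.6 or at least 1.3 marks altered migration and an active call; a mean nuclei count under 3300 forces an inactive call regardless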
- Calls: active = migration changed (impaired or accelerated); inactive = no migration change, or too few cells

gene knocked down | siRNA no. | migration relative to mock | mean nuclei count | outcome
CLIC4 | 1 | 1 | 6266 | inactive
CLIC4 | 2 | 0.58 | 5109 | active
CLIC4 | 3 | 0.29 | 2513 | inactive
CLIC4 | 4 | 0.8 | 5152 | inactive
SLC22A25 | 1 | 0.58 | 5768 | active
SLC22A25 | 2 | 0.5 | 5326 | active
SLC22A25 | 3 | 0.45 | 4200 | active
SLC22A25 | 4 | -1.16 | 3104 | inactive
SLFN12 | 1 | 0.54 | 6484 | active
SLFN12 | 2 | 0.66 | 5564 | inactive
SLFN12 | 3 | 0.84 | 6361 | inactive
SLFN12 | 4 | 0.63 | 5334 | inactive
FTMT | 1 | 0.87 | 4876 | inactive
FTMT | 2 | 1.15 | 5440 | inactive
FTMT | 3 | 0.92 | 6364 | inactive
FTMT | 4 | 1.04 | 5466 | inactive
GDF6 | 1 | 0.74 | 5956 | inactive
GDF6 | 2 | 0.93 | 6029 | inactive
GDF6 | 3 | 1.23 | 5676 | inactive
GDF6 | 4 | 1.06 | 5206 | inactive
PDGFRB | 1 | 0.46 | 5246 | active
PDGFRB | 2 | 0.24 | 4655 | active
PDGFRB | 3 | 0.6 | 4624 | active
PDGFRB | 4 | 1.06 | 6316 | inactive
ERLIN1 | 1 | 0.94 | 6156 | inactive
ERLIN1 | 2 | 0.52 | 4806 | active
ERLIN1 | 3 | 0.68 | 4198 | inactive
ERLIN1 | 4 | 1.02 | 5767 | inactive
GLI1 | 1 | 0.48 | 6662 | active
GLI1 | 2 | 0.62 | 5352 | inactive
GLI1 | 3 | 0.64 | 4774 | inactive
GLI1 | 4 | 0.66 | 6437 | inactive
ABR | 1 | 0.7 | 5907 | inactive
ABR | 2 | 0.9 | 5062 | inactive
ABR | 3 | 1.13 | 5614 | inactive
ABR | 4 | 0.7 | 5434 | inactive

Next part; the last 2 above are carried over.
gene knocked down | siRNA no. | migration relative to mock | mean nuclei count | outcome
ABR | 3 | 1.13 | 5614 | inactive
ABR | 4 | 0.7 | 5434 | inactive
GYG1 | 1 | 0.74 | 6551 | inactive
GYG1 | 2 | 0.86 | 6029 | inactive
GYG1 | 3 | 0.94 | 6647 | inactive
GYG1 | 4 | 1.01 | 5294 | inactive
EPHA6 | 1 | 0.7 | 4714 | inactive
EPHA6 | 2 | -0.07 | 3023 | inactive
EPHA6 | 3 | 0.18 | 4130 | active
EPHA6 | 4 | 0.92 | 5924 | inactive
BTK | 1 | 1 | 6509 | inactive
BTK | 2 | 0.6 | 6818 | active
BTK | 3 | 0.76 | 6174 | inactive
BTK | 4 | 0.09 | 5144 | active
FLT3 | 1 | -0.09 | 4466 | active
FLT3 | 2 | -0.21 | 3870 | active
FLT3 | 3 | 0.78 | 5494 | inactive
FLT3 | 4 | 0.8 | 6148 | inactive
STK36 | 1 | 0.6 | 4700 | active
STK36 | 2 | 0.84 | 6368 | inactive
STK36 | 3 | 0.54 | 7310 | active
STK36 | 4 | 0.68 | 5448 | inactive
CDC42 | 1 | 0.54 | 5018 | active
CDC42 | 2 | 0.31 | 6118 | active
CDC42 | 3 | -0.02 | 5122 | active
CDC42 | 4 | 0.53 | 5800 | active
DIO1 | 1 | 0.28 | 3806 | active
DIO1 | 2 | 0.96 | 5830 | inactive
DIO1 | 3 | 1.03 | 4801 | inactive
DIO1 | 4 | 0.24 | 3024 | inactive
RET | 1 | 0.4 | 4074 | active
RET | 2 | 0.9 | 6826 | inactive
RET | 3 | 0.84 | 5586 | inactive
RET | 4 | 0.55 | 5044 | active
TTLL3 | 1 | -1.21 | 3450 | active
TTLL3 | 2 | 0.76 | 7274 | inactive
TTLL3 | 3 | 0.94 | 4689 | inactive
TTLL3 | 4 | 0.52 | 6075 | active
BIRC7 | 1 | 1 | 6584 | inactive
BIRC7 | 2 | 0.86 | 6405 | inactive
BIRC7 | 3 | 0.64 | 5354 | inactive
BIRC7 | 4 | 0.88 | 5282 | inactive
CDKL5 | 1 | 0.73 | 6932 | inactive
CDKL5 | 2 | 1.06 | 6410 | inactive
CDKL5 | 3 | 0.63 | 5848 | inactive
CDKL5 | 4 | 1.17 | 6673 | inactive
MPP3 | 1 | 0.9 | 6856 | inactive
MPP3 | 2 | 0.54 | 4854 | active
MPP3 | 3 | 0.38 | 2962 | inactive
MPP3 | 4 | 0.54 | 4406 | active
ZNF703 | 1 | 0.62 | 4476 | inactive
ZNF703 | 2 | 1 | 4730 | inactive
ZNF703 | 3 | 1.01 | 5130 | inactive
ZNF703 | 4 | 1.05 | 6106 | inactive
